US20030113421A1, “Synergistic combinations of natural of compounds that control decay of fruits and vegetables and reduce contamination by foodborne human pathogens” (priority 2001, published 2003)
Some results were stated once for a whole list of compounds, not compound by compound.

Test system: E. coli
Assay type: cell-based, Escherichia coli
Details: tested individually
Protocol: E. coli (Strain #139 HB101/p5G6) was grown at 24° C. for 48 hr in shake-flask cultures of Lennox broth (LB). Bacterial cells were pelleted by centrifugation in a Sorvall RC-58 centrifuge (Dupont Instruments, Wilmington, Del.) at 3000 g for 20 min, resuspended in sterile distilled water, and centrifuged again. The resulting pellets were dispersed in sterile distilled water and the cell concentration was adjusted to 10^6 CFU per ml using a standard optical density (OD) curve with the OD values of 0.1 and 1 representing viable cell counts of 1×10^6 and 1×10^9, respectively. E. coli 015:H7 and L. monocytogenes isolates were grown overnight at 37° C. in trypticase soy broth and brain heart infusion, respectively. […] Spore counts were determined with a hemacytometer and spore concentrations were adjusted with sterile distilled water to obtain 10^5 spores per ml.
The individual effects of various essential oils and chitosan salts, and the combined effects of essential oils and chitosan salts on the growth of the indicator organism E. coli and on the postharvest pathogen B. cinerea were determined. […] The viable bacterial cell number was counted by surface plating serially diluted samples in triplicate on LB agar medium. Plates were incubated at 24° C. and colonies were counted at 48 hr. Botrytis spore germination was determined microscopically.

## CC(C)c1cccc(=O)c(O)c1 [Hinokitiol, hinokitiol]
  concentration at which no effects on E. coli growth were seen: ≤ 0.05%
